The supplement of paper PMC11732987, “Enantioselective OTUD7B fragment discovery through chemoproteomics screening and high-throughput optimisation” (Communications Chemistry, 2025)
The list shows a part of the results. The data scatter; read single values as rough.

Amino acid sequences for entries named in this document (tags omitted). A change or cut given only in a name is not applied to a line headed by its entry. Residues count along the entry.
UniProt Q9NZ71: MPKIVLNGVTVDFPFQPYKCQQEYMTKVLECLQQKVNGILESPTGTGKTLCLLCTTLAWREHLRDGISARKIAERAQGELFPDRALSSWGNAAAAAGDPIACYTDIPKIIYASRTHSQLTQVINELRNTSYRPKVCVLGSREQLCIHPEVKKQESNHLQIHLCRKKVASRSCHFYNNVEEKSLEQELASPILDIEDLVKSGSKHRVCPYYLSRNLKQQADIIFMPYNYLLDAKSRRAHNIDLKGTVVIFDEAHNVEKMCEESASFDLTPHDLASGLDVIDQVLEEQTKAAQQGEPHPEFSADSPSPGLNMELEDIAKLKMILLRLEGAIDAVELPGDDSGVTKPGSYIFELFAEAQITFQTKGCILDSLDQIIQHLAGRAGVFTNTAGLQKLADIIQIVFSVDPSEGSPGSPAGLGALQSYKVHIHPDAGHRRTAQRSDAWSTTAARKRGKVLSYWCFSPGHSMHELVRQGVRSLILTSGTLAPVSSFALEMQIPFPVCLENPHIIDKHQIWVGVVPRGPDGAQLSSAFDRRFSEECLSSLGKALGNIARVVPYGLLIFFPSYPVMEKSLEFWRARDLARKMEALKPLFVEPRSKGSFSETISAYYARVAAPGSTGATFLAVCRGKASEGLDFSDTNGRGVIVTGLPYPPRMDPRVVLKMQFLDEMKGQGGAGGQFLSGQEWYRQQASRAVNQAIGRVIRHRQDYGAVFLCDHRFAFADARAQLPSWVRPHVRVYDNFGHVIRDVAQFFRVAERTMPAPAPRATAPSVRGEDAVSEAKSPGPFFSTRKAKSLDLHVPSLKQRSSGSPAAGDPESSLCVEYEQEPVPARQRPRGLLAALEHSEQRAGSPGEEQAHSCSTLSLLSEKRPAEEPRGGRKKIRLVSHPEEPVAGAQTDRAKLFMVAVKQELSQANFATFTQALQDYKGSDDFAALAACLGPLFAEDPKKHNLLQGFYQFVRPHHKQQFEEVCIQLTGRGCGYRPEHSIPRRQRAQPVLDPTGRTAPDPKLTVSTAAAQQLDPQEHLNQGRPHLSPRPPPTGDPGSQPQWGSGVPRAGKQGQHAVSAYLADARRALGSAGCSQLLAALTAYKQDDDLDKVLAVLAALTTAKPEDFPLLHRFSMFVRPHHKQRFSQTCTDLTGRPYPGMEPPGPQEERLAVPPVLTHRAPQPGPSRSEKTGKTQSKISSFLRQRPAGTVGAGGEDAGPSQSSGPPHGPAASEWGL
UniProt P28702: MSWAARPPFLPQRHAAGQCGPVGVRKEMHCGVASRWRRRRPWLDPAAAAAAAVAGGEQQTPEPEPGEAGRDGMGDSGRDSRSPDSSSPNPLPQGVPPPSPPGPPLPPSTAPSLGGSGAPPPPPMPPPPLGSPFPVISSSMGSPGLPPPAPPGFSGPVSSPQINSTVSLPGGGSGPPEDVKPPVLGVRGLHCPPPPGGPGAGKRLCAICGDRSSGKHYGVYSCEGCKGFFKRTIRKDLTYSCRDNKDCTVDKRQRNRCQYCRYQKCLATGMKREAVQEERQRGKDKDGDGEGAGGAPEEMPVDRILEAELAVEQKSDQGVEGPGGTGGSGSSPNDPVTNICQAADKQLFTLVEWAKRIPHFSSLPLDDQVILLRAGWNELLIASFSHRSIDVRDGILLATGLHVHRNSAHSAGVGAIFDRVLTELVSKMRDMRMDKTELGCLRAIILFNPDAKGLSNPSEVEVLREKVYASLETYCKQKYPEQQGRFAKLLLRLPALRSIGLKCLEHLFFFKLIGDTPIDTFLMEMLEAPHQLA
UniProt Q9UBS8: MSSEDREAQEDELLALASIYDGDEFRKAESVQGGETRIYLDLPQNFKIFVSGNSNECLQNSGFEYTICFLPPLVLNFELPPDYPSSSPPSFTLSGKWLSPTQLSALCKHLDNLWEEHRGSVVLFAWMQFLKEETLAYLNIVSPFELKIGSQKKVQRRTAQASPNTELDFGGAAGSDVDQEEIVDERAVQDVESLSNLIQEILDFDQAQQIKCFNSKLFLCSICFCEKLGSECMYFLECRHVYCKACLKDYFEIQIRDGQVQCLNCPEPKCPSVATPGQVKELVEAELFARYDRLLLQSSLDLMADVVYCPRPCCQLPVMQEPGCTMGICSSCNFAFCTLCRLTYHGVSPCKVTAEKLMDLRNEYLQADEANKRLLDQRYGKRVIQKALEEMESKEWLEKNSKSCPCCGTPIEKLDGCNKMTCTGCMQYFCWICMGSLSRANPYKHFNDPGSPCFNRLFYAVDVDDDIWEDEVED
UniProt Q8N5U6: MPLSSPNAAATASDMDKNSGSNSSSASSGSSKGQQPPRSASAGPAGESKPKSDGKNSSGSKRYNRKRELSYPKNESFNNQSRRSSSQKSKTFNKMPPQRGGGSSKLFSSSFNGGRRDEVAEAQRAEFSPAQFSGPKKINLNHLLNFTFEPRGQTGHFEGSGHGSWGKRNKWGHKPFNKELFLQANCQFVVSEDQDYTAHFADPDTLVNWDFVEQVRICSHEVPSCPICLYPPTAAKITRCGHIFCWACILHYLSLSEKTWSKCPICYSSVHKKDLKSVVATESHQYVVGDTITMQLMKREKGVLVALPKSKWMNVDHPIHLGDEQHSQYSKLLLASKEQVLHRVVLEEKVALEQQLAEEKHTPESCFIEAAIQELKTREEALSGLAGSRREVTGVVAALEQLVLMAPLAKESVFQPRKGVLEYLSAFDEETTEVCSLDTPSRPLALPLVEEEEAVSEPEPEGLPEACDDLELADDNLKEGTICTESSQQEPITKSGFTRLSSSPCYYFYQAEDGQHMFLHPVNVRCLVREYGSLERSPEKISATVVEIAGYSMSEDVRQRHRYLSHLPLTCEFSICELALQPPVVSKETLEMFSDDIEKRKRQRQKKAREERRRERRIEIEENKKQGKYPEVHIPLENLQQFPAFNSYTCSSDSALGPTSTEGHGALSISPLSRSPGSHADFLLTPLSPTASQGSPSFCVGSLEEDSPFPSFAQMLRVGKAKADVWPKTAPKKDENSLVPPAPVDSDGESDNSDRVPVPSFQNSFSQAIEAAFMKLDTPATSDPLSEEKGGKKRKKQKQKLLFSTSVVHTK
UniProt Q9Y508, 7-26: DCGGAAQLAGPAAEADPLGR

What was measured:
[1] = compound: ClCC(=O)N[C@@H]1CCCc2ccccc12; experiment: log2 mean competition ratio of IA-DTB cysteine labelling (DMSO/compound) (log2 ratio); higher = stronger cysteine engagement by compound; conditions: treatment time: 4 h, cell line lysate: HEK293T
Method: (§1)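 IA-DTB competitive cysteine chemoproteomics in HEK293T RIPA lysate. Lysates were treated with compound 29 or 30 at 50 or 200 µM for 4 h, then IA-DTB (500 µM, 1 h), trypsin-digested, NeutrAvidin-enriched and analysed by diaPASEF. Competition ratio = intensity DMSO / intensity compound (n=4 treated, n=64 DMSO); binding: mean log2 CR ≥ 1 and p ≤ 0.05 plus QC filters. Target is the cysteine site.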

[2] = compound: ClCC(=O)N[C@H]1CCCc2ccccc12; experiment: as above; conditions: treatment time: 4 h, cell line lysate: HEK293T
Method: as §1

Target | log2 mean competition ratio ([1]; 50 µM) | log2 mean competition ratio ([1]; 200 µM) | log2 mean competition ratio ([2]; 50 µM) | log2 mean competition ratio ([2]; 200 µM)
RNF135 C270 | -0.216 | -3.72 | -0.416 | 0.00677
RTEL1 C136 (UniProt Q9NZ71) | 0.0563 | 0.117 | -0.0598 | 0.26
RXRB C440 (UniProt P28702) | -0.0355 | 0.408 | -0.273 | 0.31
RNF14 C453 (UniProt Q9UBS8) | -0.0795 | -0.122 | -0.296 | -0.0421
RNF10 C483 (UniProt Q8N5U6) | -0.33 | -0.373 | -0.235 | -0.24
RNF114 C8 (UniProt Q9Y508) | -0.208 | -0.0552 | 0.528 | 0.0885
